# Primary screen of a compound library

Amino acid sequences for entries named in this document (tags omitted). Residues count along the entry.
UniProt Q8IDJ8, 1-583: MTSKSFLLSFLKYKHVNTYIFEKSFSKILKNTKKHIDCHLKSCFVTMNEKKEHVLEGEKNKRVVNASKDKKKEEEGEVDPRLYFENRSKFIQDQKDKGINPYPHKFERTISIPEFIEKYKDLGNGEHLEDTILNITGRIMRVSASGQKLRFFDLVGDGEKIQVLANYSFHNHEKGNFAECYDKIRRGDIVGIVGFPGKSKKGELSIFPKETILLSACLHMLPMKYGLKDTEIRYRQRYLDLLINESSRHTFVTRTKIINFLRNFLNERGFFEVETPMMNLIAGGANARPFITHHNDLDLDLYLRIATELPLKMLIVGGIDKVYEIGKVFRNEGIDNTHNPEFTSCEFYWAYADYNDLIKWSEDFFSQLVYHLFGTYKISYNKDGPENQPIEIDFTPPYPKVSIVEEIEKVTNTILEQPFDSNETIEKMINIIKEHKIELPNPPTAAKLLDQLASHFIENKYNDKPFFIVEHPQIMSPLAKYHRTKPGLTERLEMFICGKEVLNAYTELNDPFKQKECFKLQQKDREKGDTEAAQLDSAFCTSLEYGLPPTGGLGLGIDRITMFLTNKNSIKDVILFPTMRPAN
UniProt P9WFT3, whole entry: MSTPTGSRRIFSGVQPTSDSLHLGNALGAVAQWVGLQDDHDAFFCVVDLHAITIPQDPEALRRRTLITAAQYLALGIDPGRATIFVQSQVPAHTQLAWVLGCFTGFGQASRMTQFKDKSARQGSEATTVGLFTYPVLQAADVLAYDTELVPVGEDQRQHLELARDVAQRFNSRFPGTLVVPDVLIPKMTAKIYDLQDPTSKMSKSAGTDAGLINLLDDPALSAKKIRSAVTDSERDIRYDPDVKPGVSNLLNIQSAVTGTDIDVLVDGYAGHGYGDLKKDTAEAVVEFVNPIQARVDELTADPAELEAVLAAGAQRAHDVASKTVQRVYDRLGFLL

A: 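Enzyme assay of the cytosolic lysyl-tRNA synthetase in 384-well plates, read by luminescence. Target: Lysine-tRNA ligase, Plasmodium falciparum 3D7 (UniProt Q8IDJ8). Tested at 30 µM. Higher reads as stronger inhibition, judged from the few compounds that gave an IC50. Of about 69,000 compounds tested this way, about 49 (0.071%) reached 50% or more in at least one test.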
B: 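Enzyme assay of tryptophanyl-tRNA synthetase; the read-out is not stated. Target: Tryptophan-tRNA ligase, Mycobacterium tuberculosis (UniProt P9WFT3). Tested at 10 µM. Higher most likely means stronger inhibition; the record gives no direction and few retests gave an IC50. Size under these conditions: about 65,000 compounds, about 64 of them at 50% or above in at least one test.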

The filed quantity is “Percent Effect” (%). The controls that fix the scale are not given in the record; negative values are as filed. This is an unselected part of the compounds tested. A dash means the value is not listed here; it may have been measured.

Compound | A | B
Cn1ccnc1CCNS(=O)(=O)Cc1cccc(C#N)c1 | 0.1567% | -3.818%
c1csc(CN2CCCC3(COCCN(Cc4c[nH]nn4)C3)C2)c1 (configuration not stated) | -3.005% | 4.719%
CC(=O)N1CCCC(Cc2nccn2C)C1 (configuration not stated) | 2.299% | -
COc1ccc(CN2C[C@@H]3CN(Cc4cccnc4)CCO[C@@H]3C2)cc1 | 4.407% | 3.116%
CCN1CCC2(CN(C(C)=O)CC23CCN(CC2CC2)CC3)C1=O (configuration not stated) | 5.002% | -5.74%
Cc1ccc(NC(=O)c2ccc(=O)n(CC(=O)NC3CCCC3)n2)cc1 | 1.459% | -2.205%
CN(C)C(CNC(=O)CCNC(=O)OCC(F)(F)F)c1ccsc1 (configuration not stated) | 2.671% | 4.72%
N#CC1(C(=O)N2CCCN(c3nccs3)CC2)CCCC1 | -2.396% | -6.466%
Cc1ccc(CNC(=O)NC(C)CCS(C)(=O)=O)cc1F (configuration not stated) | 2.84% | -2.182%
CCS(=O)(=O)CC(=O)Nc1ccccc1N1CCc2ccccc21 | 6.078% | 0.859%
CN(C)[C@@H]1CN(Cc2cccnc2)C[C@H]1c1cn(C)c2ccccc12 | 0.9681% | -2.734%
COc1ncccc1NC(=O)N1CCCC1c1cc(C)no1 (configuration not stated) | -1.617% | -2.484%
CC(NC(=O)N1CCC2(C1)OCCO2)c1ccc(F)cc1Cl (configuration not stated) | 1.329% | -0.5045%
COCc1cccc(CNC(=O)c2c(C)noc2C(C)C)c1 | -1.475% | 14.9%
O=C1O[C@@H]2CN(c3ncccn3)C[C@@H]2N1CCCc1ccc(F)cc1 | 1.146% | -4.907%
O=C(N1CCOCC1)[C@@]12CCO[C@@H]1CCN(C1CCC1)C2 | -0.4964% | 4.426%
CC[C@H](Cn1ncc2ccccc2c1=O)NC(=O)c1ccccn1 | 1.459% | -4.197%
O=C(NCCc1ccccn1)[C@@]12CCO[C@@H]1CCN(CC1CC1)C2 | 3.449% | 0.2907%
COCc1nc(-c2ccc(S(=O)(=O)N3CCCC3)cc2)cs1 | 3.603% | -16.53%
CN(CCO)Cc1cc(Cl)ccc1OCC(O)CN1CCCCCC1 (configuration not stated) | -3.606% | 3.366%
Cn1cnc2c(-c3cccnc3)nc(C3CCNCC3)cc21 | 4.066% | -6.95%
CCCN1CCN(C(=O)c2cccc(C)n2)[C@H]2CS(=O)(=O)C[C@H]21 | 3.067% | -1.215%
Cc1cc(C(=O)N2CCc3nc4sc(C)cc4c(=O)n3CC2)on1 | 0.2662% | -
O=C(N1CCN(CCO)CC1)C1(O)Cc2ccccc2C1 | 5.996% | -0.8596%
OCCN(Cc1cccnc1)c1ccc(Cl)cn1 | 3.585% | -0.9372%
CCOc1cc(C)ccc1NC(=O)N(C)Cc1cnn(C)c1 | 0.5298% | -2.113%
Cc1nc2sc(C(=O)N3CCNC(=O)C3)c(C)c2c(=O)[nH]1 | 2.291% | 6.553%
Cc1ncc2c(c1CNC(=O)C1(C)CC1)CCNC2 | 10.02% | -2.7%
O=C1CCCN1CC1CCCCN1C(=O)Nc1cccnc1 (configuration not stated) | 5.846% | -3.511%
CC(C)C[C@H](NC(=O)c1cc(-c2cccn2C)n[nH]1)C(N)=O | 1.576% | 9.336%
Cc1cc(C(F)(F)F)nc(C2CCCN2S(C)(=O)=O)n1 (configuration not stated) | 1.509% | -4.167%
NC(=O)COc1ccc(CN2CCNC(C(=O)NC3CC3)C2)cc1Cl (configuration not stated) | 7.425% | -4.776%
O=C(CCc1nc2cc(Br)cnc2[nH]1)NCc1cccnc1 | 1.14% | 4.832%
O=C(Cc1ccc2c(c1)OCCO2)N1CCCC(n2cccn2)C1 (configuration not stated) | -0.2128% | -1.798%
COc1ccc(OCC(=O)NS(=O)(=O)c2ccc(Cl)s2)cc1 | 4.605% | -1.312%
CSc1ncc(CN2C[C@H]3CC[C@@H]2CN(C2CCOCC2)C3)cn1 | 4.634% | 3.565%
O=C(c1ccc(=O)[nH]n1)N1CC(c2nc(Cc3ccccc3)no2)C1 | 1.472% | 2.922%
CC(C)N1CCc2onc(Cn3cccc3)c2C1 | 1.757% | -6.132%
O=C1CC(c2ccccc2)C2(CCN(CC3CC3)CC2)N1 (configuration not stated) | 3.749% | -2.413%
O=C(NCC(F)F)c1cnc(C2CCCN2)cn1 (configuration not stated) | 6.948% | -1.979%
Cc1cc(C(=O)Nc2ccc(-c3nnc(N(C)C)o3)cc2)oc1C | 0.2545% | -7.121%
COCc1ccc(CN2CCC(O)(Cn3ccc4ncccc43)CC2)o1 | 0.5124% | -1.586%
COCCC(=O)N1CCC(Nc2ncc(Br)cn2)CC1 | -0.03274% | 3.42%
Cc1nc(C(Cc2ccsc2)NC(=O)CN2CCOCC2)sc1C (configuration not stated) | 4.939% | -0.3958%
CS(=O)(=O)c1nnc(NC(=O)CCc2cccc(Cl)c2)[nH]1 | 6.791% | 3.008%
Cn1cc(NC(=O)NC2CCCN(c3ccccc3Cl)C2=O)cn1 (configuration not stated) | 0.2424% | -0.08944%
CN1CCc2cc(C(CNS(=O)(=O)c3cccs3)N3CCCC3)ccc21 (configuration not stated) | 0.02378% | 1.433%

Repeated from the top, 4 entries:

- Cn1ccnc1CCNS(=O)(=O)Cc1cccc(C#N)c1 | A: 0.1567%; B: -3.818%
- c1csc(CN2CCCC3(COCCN(Cc4c[nH]nn4)C3)C2)c1 (configuration not stated) | A: -3.005%; B: 4.719%
- CC(=O)N1CCCC(Cc2nccn2C)C1 (configuration not stated) | A: 2.299%
- COc1ccc(CN2C[C@@H]3CN(Cc4cccnc4)CCO[C@@H]3C2)cc1 | A: 4.407%; B: 3.116%

Source: ChEMBL document CHEMBL3988442, “University of Dundee, Small-Polar-MMV Screening Library” (2021).